# Results from patent US12433964B2, “Antiviral and antibacterial disinfection aero-solution using edible food dyes” (Purdue Research Foundation, priority 2020, dated 2025).
# Test: Detection of photogenerated singlet oxygen with turn-off fluorescent ABDA radical probe and NaN3 scavenger
# Type: physicochemical
structure (smiles),measurement,setting,value
"C1=Cc2nc1c(-c1ccccc1)c1ccc([nH]1)c(-c1ccccc1)c1nc(c(-c3ccccc3)c3ccc([nH]3)c2-c2ccccc2)C=C1.[Zn] [ZnTPP, 5,10,15,20-Tetraphenyl-21H,23H-porphine zinc]",intensity of ABDA fluorescent peaks as irradiation time increases (singlet oxygen generation),"photosensitizer in solution with 20 μM ABDA, green light 530 nm, 0.02 mW mm^−2 (FIG. 3b)",gradually drops
same,intensity of ABDA in the presence of singlet oxygen scavenger,"with NaN3 scavenger, green light 530 nm (FIG. 3c)",no significant difference
